Assay results reported in the supplement of paper PMC10849652.
The other results are listed elsewhere or left out.

By UniProt entry, the sequences of proteins in these tests, tags left out. Where a name states a change or a piece, a line headed by the entry shows the natural chain unless it says otherwise.
UniProt P20742, whole entry, looked up: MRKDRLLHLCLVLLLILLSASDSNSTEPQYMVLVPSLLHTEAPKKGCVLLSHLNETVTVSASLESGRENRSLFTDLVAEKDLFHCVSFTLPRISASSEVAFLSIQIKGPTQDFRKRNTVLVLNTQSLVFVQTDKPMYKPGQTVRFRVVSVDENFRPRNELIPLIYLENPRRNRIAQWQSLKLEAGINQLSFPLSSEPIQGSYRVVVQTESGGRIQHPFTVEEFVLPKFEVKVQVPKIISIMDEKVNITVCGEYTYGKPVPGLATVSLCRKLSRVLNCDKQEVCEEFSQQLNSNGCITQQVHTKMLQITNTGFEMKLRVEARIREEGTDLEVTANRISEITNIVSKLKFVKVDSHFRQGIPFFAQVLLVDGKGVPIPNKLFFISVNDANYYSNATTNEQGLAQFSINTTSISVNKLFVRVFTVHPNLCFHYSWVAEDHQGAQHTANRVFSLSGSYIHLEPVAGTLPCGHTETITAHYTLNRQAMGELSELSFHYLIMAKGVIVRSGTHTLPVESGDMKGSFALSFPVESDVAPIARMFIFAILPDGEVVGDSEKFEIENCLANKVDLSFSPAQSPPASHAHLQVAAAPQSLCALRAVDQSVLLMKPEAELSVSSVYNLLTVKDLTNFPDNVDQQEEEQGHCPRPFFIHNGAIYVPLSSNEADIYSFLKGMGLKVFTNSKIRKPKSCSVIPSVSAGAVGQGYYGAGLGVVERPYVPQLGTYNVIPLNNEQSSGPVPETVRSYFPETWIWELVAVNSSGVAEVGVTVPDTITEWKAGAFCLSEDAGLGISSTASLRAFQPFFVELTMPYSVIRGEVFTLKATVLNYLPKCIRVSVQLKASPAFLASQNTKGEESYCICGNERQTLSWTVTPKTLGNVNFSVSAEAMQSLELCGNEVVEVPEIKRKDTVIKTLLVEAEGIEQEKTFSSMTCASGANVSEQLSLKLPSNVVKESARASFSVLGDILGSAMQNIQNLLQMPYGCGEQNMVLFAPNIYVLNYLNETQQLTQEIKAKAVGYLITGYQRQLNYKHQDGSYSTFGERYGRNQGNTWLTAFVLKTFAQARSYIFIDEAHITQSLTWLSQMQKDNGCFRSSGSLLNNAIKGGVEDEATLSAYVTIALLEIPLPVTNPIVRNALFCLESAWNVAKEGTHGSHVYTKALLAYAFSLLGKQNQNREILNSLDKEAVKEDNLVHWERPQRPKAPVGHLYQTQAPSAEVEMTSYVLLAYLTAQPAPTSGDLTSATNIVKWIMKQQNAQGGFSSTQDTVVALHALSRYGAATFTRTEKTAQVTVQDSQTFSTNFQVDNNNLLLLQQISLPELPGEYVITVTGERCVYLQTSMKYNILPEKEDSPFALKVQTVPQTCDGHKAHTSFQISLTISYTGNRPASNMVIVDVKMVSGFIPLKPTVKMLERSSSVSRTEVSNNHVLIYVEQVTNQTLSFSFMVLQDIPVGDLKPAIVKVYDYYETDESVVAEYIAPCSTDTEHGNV
UniProt Q9H974: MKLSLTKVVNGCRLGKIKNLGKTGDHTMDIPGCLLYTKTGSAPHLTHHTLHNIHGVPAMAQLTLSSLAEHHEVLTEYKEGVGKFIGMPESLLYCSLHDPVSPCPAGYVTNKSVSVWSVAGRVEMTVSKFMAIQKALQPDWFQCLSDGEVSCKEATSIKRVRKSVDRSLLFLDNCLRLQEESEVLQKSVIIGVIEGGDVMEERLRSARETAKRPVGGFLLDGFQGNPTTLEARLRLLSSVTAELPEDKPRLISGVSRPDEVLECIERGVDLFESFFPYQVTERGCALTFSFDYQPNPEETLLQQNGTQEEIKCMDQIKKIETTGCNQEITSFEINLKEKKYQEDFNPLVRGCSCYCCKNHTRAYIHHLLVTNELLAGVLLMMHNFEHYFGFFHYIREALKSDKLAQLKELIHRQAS
UniProt Q16401: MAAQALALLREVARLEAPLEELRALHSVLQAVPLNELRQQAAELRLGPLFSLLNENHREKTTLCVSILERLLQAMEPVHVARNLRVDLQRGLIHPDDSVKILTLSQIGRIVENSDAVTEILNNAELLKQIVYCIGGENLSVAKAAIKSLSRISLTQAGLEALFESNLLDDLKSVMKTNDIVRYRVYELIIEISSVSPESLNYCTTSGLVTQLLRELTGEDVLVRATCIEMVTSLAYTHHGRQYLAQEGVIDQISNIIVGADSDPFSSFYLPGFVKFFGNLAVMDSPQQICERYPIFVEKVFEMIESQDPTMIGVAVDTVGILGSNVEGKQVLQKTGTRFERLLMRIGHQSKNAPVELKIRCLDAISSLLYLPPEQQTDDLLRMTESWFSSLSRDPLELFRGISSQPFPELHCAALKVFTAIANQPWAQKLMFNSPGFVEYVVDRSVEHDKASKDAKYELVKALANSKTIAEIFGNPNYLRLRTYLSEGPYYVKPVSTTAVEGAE
UniProt O00487, whole entry, looked up: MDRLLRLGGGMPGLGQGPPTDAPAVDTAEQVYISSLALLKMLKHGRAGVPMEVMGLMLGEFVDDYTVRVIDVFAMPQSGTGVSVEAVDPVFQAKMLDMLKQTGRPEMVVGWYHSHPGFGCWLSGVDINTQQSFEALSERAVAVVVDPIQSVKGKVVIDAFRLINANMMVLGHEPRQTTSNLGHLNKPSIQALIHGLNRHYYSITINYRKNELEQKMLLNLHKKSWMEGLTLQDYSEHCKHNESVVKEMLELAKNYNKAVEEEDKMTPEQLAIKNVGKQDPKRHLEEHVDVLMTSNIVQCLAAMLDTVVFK
UniProt P06454: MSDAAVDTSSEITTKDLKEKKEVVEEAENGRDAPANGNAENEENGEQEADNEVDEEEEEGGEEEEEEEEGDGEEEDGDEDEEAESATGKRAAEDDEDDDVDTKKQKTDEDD
UniProt Q9H0K6: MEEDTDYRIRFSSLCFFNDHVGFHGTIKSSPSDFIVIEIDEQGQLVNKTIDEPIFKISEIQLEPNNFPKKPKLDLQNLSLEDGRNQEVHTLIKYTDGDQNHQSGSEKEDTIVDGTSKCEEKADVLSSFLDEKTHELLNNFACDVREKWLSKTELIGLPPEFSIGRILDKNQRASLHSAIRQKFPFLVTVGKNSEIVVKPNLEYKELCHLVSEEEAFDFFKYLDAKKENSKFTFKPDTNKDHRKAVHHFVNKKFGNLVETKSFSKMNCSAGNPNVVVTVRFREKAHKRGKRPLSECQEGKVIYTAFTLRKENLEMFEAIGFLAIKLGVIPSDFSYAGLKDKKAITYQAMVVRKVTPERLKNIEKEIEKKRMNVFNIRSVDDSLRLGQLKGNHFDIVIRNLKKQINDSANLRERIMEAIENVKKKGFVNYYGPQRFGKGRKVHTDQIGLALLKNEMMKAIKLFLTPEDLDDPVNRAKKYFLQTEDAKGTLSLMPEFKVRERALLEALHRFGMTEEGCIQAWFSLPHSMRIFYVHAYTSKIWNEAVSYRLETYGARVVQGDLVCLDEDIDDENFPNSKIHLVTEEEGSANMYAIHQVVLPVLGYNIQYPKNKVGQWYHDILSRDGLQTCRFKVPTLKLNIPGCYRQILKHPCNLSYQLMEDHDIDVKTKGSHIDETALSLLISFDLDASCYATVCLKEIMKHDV
UniProt Q9BVG9: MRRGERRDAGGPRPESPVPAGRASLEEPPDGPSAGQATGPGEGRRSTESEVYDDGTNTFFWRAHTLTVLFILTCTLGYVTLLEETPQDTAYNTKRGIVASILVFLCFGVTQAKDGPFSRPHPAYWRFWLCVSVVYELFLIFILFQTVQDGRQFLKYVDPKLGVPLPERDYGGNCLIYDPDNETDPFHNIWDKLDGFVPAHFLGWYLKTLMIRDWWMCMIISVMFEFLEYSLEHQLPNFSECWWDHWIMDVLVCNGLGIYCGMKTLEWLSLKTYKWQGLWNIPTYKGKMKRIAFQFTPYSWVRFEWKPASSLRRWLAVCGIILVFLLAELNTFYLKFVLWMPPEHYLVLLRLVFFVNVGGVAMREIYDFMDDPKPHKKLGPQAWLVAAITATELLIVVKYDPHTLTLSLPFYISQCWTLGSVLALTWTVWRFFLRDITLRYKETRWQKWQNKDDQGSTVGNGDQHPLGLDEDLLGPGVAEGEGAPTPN
UniProt Q15274: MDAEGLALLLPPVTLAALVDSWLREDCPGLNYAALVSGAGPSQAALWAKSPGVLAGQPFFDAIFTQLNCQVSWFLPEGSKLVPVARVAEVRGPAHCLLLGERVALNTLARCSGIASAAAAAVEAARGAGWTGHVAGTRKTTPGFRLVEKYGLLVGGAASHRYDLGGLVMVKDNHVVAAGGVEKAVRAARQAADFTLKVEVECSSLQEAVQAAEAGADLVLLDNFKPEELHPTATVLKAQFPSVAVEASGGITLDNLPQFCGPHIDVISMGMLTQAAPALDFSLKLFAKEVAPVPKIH
UniProt Q8WUK0: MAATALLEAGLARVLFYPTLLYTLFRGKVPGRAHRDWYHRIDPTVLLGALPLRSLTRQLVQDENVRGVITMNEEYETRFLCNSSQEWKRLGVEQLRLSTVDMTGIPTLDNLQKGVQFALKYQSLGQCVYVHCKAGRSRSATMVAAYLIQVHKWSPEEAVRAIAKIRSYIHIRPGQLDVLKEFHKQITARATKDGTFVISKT
UniProt P55036: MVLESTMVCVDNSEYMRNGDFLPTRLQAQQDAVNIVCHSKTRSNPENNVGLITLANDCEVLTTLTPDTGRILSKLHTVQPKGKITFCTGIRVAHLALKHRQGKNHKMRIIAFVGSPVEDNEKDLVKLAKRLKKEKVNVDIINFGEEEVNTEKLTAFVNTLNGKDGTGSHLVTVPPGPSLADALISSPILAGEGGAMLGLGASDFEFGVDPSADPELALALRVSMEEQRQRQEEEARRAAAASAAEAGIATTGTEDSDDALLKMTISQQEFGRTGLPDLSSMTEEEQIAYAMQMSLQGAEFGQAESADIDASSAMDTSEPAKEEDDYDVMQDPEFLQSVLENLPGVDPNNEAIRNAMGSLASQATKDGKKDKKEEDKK
UniProt P23219, whole entry, looked up: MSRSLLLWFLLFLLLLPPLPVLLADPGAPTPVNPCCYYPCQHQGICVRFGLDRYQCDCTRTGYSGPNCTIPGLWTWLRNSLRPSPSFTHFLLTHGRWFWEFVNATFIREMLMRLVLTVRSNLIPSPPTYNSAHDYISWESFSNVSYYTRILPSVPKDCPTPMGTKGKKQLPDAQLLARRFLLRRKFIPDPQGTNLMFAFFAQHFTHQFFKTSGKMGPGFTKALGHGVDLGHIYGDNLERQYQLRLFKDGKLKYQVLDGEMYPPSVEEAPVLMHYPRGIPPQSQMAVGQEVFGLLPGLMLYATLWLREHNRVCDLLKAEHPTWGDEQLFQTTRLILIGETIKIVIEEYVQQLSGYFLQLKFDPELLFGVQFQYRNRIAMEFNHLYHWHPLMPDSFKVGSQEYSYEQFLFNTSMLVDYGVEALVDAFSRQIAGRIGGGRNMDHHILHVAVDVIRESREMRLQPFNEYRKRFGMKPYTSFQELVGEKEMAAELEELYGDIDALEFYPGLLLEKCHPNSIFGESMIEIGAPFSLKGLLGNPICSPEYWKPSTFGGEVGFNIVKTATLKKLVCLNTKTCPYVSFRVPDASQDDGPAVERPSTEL
UniProt P17980, whole entry, looked up: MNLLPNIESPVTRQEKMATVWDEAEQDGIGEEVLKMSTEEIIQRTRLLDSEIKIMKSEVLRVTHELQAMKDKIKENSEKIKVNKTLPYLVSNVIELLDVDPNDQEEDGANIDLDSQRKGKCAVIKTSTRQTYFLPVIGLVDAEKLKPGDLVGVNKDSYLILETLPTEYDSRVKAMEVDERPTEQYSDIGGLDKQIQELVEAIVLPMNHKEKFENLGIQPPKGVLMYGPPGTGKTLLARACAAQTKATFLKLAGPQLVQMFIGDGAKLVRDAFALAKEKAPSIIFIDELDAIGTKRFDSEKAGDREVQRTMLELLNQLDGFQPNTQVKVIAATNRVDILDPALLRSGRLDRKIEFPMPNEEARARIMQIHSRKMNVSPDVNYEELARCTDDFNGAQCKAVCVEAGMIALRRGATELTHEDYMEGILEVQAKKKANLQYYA
UniProt P26599: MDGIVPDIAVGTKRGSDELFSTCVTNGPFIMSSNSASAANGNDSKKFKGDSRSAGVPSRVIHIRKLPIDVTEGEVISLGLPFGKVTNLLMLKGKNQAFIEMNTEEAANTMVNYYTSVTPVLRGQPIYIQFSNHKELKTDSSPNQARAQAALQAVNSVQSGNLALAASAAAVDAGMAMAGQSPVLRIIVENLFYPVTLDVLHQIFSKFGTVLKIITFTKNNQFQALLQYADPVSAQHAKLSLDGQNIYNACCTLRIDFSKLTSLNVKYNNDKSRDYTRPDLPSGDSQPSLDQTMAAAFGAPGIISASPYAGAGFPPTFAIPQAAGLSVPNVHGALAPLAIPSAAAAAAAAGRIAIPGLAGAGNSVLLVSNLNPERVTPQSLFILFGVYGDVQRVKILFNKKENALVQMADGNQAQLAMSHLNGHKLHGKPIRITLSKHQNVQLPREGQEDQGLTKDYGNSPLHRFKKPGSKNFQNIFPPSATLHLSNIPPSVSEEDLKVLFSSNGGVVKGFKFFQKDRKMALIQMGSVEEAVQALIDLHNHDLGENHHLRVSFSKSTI

Legend:
Test in all cases: log2 fold change, soluble protein after heating vs DMSO (PISA); higher = thermal stabilisation; K562 cells, 10 uM, 30 min; active = over 0.2 and 3.5 SD of the protein, either way, in both replicates (recomputed)
bafetinib = compound: Cc1ccc(NC(=O)c2ccc(CN3CC[C@H](N(C)C)C3)c(C(F)(F)F)c2)cc1Nc1nccc(-c2cncnc2)n1 [bafetinib]
Summary of the method: (§1)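 K562 cells at 2×10^6 cells/mL were given 10 μM compound for 30 min. Aliquots then went through 3 min of heating across 48°C-58°C, were pooled, and were extracted in PBS with 0.5% NP-40 at 4°C, and the supernatant after 21,000xg for 90 min was quantified by TMTpro 16plex LC-MS/MS with channel sums equalised. Thermal stability relative to control samples, from duplicates, is given as log2 fold change.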

[1] = compound: Cc1cccc(CC(=O)N2CCc3c2ccc(-c2cn(C)c4ncnc(N)c24)c3F)n1
Summary of the method: as §1

nilotinib = compound: Cc1cn(-c2cc(NC(=O)c3ccc(C)c(Nc4nccc(-c5cccnc5)n4)c3)cc(C(F)(F)F)c2)cn1 [nilotinib]
Summary of the method: as §1

[2] = compound: Cc1nc(Nc2n[nH]c3c2CN(C(=O)N[C@H](CN(C)C)c2ccccc2)C3(C)C)c2sccc2n1
Summary of the method: as §1

dasatinib = compound: Cc1nc(Nc2ncc(C(=O)Nc3c(C)cccc3Cl)s2)cc(N2CCN(CCO)CC2)n1 [dasatinib]
Summary of the method: as §1

[3] = compound: Cc1ncc(-c2ccnc(Nc3ccc(S(C)(=O)=O)cc3)n2)n1C(C)C
Summary of the method: as §1

[4] = compound: Cn1cc(-c2ccc3c(c2)CCN3C(=O)Cc2cccc(C(F)(F)F)c2)c2c(N)ncnc21
Summary of the method: as §1

[5] = compound: Cn1cc(-c2ccc3nnc(C(F)(F)c4ccc5ncccc5c4)n3n2)cn1
Summary of the method: as §1

tipifarnib = compound: Cn1cncc1[C@@](N)(c1ccc(Cl)cc1)c1ccc2c(c1)c(-c1cccc(Cl)c1)cc(=O)n2C [tipifarnib]
Summary of the method: as §1

mubritinib = compound: FC(F)(F)c1ccc(/C=C/c2nc(COc3ccc(CCCCn4ccnn4)cc3)co2)cc1 [mubritinib]
Summary of the method: as §1

Measured: log2 fold change

PSMA4 (UniProt P25789)
inactive: bafetinib 0.149 | [1] -0.005 | nilotinib 0.005 | [2] 0.089 | dasatinib 0.056 | [3] 0.011 | [4] -0.068 | [5] -0.014 | tipifarnib 0.046 | mubritinib -0.021

PZP (UniProt P20742)
inactive: bafetinib -0.021 | [1] 0.081 | nilotinib 0.059 | [2] 0.084 | dasatinib 0.052 | [3] 0.552 | [4] 0.238 | [5] -0.156 | tipifarnib -0.009 | mubritinib -0.026

QARS (UniProt P47897)
inactive: bafetinib 0.209 | [1] -0.008 | nilotinib -0.108 | [2] -0.006 | dasatinib 0.016 | [3] 0.05 | [4] -0.244 | [5] -0.221 | tipifarnib 0.007 | mubritinib -0.155

PSMD1 (UniProt Q99460)
inactive: bafetinib 0.16 | [1] 0.037 | nilotinib 0.006 | [2] 0.041 | dasatinib 0.065 | [3] -0.017 | [4] -0.102 | [5] 0.019 | tipifarnib 0.068 | mubritinib -0.019

QTRT2 isoform 4 (UniProt Q9H974)
inactive: bafetinib -0.033 | [1] 0.002 | nilotinib 0.016 | [2] -0.009 | dasatinib 0.036 | [3] -0.045 | [4] 0.051 | [5] 0.026 | tipifarnib -0.007 | mubritinib 0.039

PSMB7 (UniProt Q99436)
inactive: bafetinib 0.036 | [1] -0.003 | nilotinib 0.038 | [2] 0.041 | dasatinib 0.044 | [3] 0.013 | [4] -0.068 | [5] -0.009 | tipifarnib 0.046 | mubritinib -0.008

Two records picked at random from those above, as already listed:
PSMA4 (UniProt P25789)
inactive: bafetinib 0.149 | [1] -0.005 | nilotinib 0.005 | [2] 0.089 | dasatinib 0.056 | [3] 0.011 | [4] -0.068 | [5] -0.014 | tipifarnib 0.046 | mubritinib -0.021

PZP (UniProt P20742)
inactive: bafetinib -0.021 | [1] 0.081 | nilotinib 0.059 | [2] 0.084 | dasatinib 0.052 | [3] 0.552 | [4] 0.238 | [5] -0.156 | tipifarnib -0.009 | mubritinib -0.026

Next part

PTPN23 (UniProt Q9H3S7)
inactive: bafetinib 0.028 | [1] 0.053 | nilotinib -0.07 | [2] -0.096 | dasatinib -0.199 | [3] 0.059 | [4] -0.016 | [5] 0.02 | tipifarnib -0.069 | mubritinib 0.034

PXK (UniProt Q7Z7A4)
inactive: bafetinib -0.01 | [1] 0.086 | nilotinib -0.026 | [2] 0.025 | dasatinib 0.226 | [3] 0.012 | [4] 0.029 | [5] -0.106 | tipifarnib -0.001 | mubritinib 0.098

PSMD5 (UniProt Q16401)
inactive: bafetinib -0.09 | [1] 0.006 | nilotinib -0.015 | [2] -0.026 | dasatinib -0.026 | [3] 0.006 | [4] 0.018 | [5] 0.002 | tipifarnib -0.05 | mubritinib 0.023

PSMD14 (UniProt O00487)
inactive: bafetinib 0.215 | [1] 0.013 | nilotinib 0.022 | [2] 0.052 | dasatinib 0.019 | [3] -0.019 | [4] -0.066 | [5] -0.03 | tipifarnib 0.05 | mubritinib -0.034

PTMA (UniProt P06454)
inactive: bafetinib -0.076 | [1] -0.047 | nilotinib 0.023 | [2] 0.001 | dasatinib -0.01 | [3] -0.031 | [4] 0.177 | [5] -0.147 | tipifarnib -0.02 | mubritinib 0.109

PTP4A3 (UniProt O75365)
inactive: bafetinib 0.162

PUS7L (UniProt Q9H0K6)
inactive: bafetinib -0.04 | [1] -0.004 | nilotinib -0.003 | [2] -0.057 | dasatinib 0.013 | [3] -0.001 | [4] -0.001 | [5] -0.018 | tipifarnib 0.032 | mubritinib 0.007

PTDSS1 (UniProt P48651)
inactive: bafetinib -0.125 | [1] 0.092 | nilotinib -0.166 | [2] 0.084 | dasatinib -0.002 | [3] 0.017 | [4] -0.089 | [5] 0.042 | tipifarnib 0.018 | mubritinib -0.074

PTDSS2 (UniProt Q9BVG9)
inactive: bafetinib -0.065 | [1] -0.012 | nilotinib -0.052 | [2] -0.009 | dasatinib -0.028 | [3] 0.038 | [4] 0.056 | [5] 0.003 | tipifarnib -0.031 | mubritinib 0.047

QPCTL (UniProt Q9NXS2)
inactive: bafetinib -0.017 | [1] -0.027 | nilotinib -0.045 | [2] 0.03 | dasatinib 0.025 | [3] -0.074 | [4] -0.073 | [5] -0.062 | tipifarnib 0.127 | mubritinib -0.068

PWP1 (UniProt Q13610)
inactive: bafetinib 0.218 | [1] 0.033 | nilotinib 0.026 | [2] 0.285 | dasatinib 0.228 | [3] 0.155 | [4] -0.427 | [5] -0.154 | tipifarnib 0.193 | mubritinib -0.111

PTK7 isoform 6 (UniProt Q13308)
inactive: bafetinib -0.101 | [1] -0.107 | nilotinib -0.184 | [2] -0.007 | dasatinib 0 | [3] -0.048 | [4] -0.019 | [5] 0.003 | tipifarnib 0.061 | mubritinib 0.02

PSMD6 (UniProt Q15008)
inactive: bafetinib 0.115 | [1] 0.008 | nilotinib 0.022 | [2] 0.054 | dasatinib 0.059 | [3] -0.014 | [4] -0.083 | [5] -0.035 | tipifarnib 0.03 | mubritinib -0.012

PTPA (UniProt A6PVN8)
inactive: bafetinib -0.122 | [1] -0.084 | nilotinib -0.134 | [2] 0.008 | dasatinib 0.075 | [3] 0.013 | [4] -0.075 | [5] 0.05 | tipifarnib 0.232 | mubritinib 0.114

QPRT (UniProt Q15274)
inactive: bafetinib 0 | [1] -0.008 | nilotinib -0.002 | [2] -0.037 | dasatinib 0.053 | [3] 0.001 | [4] 0.043 | [5] 0.051 | tipifarnib -0.003 | mubritinib 0.048

PTPMT1 (UniProt Q8WUK0)
inactive: bafetinib -0.16 | [1] -0.003 | nilotinib 0.069 | [2] -0.013 | dasatinib -0.138 | [3] 0.029 | [4] -0.056 | [5] -0.132 | tipifarnib 0.026 | mubritinib -0.006

PSMD4 (UniProt P55036)
inactive: bafetinib 0.067 | [1] -0.016 | nilotinib 0.064 | [2] 0.044 | dasatinib 0.017 | [3] -0.019 | [4] -0.08 | [5] -0.022 | tipifarnib 0.063 | mubritinib -0.019

PTGS1 isoform 6 (UniProt P23219)
inactive: bafetinib -0.007 | [1] -0.041 | nilotinib -0.025 | [2] 0.047 | dasatinib -0.02 | [3] -0.026 | [4] 0.029 | [5] 0.058 | tipifarnib 0.034 | mubritinib -0.021

PUM2 (UniProt Q8TB72)
inactive: bafetinib -0.123 | [1] -0.054 | nilotinib 0.064 | [2] 0.029 | dasatinib 0.043 | [3] -0.082 | [4] 0.006 | [5] 0.035 | tipifarnib 0.018 | mubritinib 0.037

PSMC2 (UniProt P35998)
inactive: bafetinib 0.081 | [1] 0.029 | nilotinib -0.019 | [2] 0.044 | dasatinib 0.034 | [3] -0.018 | [4] -0.126 | [5] -0.013 | tipifarnib 0.113 | mubritinib -0.031

PSMC3 (UniProt P17980)
inactive: bafetinib 0.072 | [1] -0.033 | nilotinib -0.004 | [2] 0.059 | dasatinib 0.016 | [3] -0.017 | [4] -0.1 | [5] -0.005 | tipifarnib 0.124 | mubritinib -0.016

PTBP1 (UniProt P26599)
inactive: bafetinib 0.047 | [1] 0.127 | nilotinib -0.079 | [2] -0.121 | dasatinib -0.078 | [3] -0.048 | [4] 0.009 | [5] 0.009 | tipifarnib -0.05 | mubritinib -0.018
